Experimental findings from publication PMC4978403 are described below.

By UniProt entry, the sequences of proteins in these tests, tags left out.
UniProt P46936: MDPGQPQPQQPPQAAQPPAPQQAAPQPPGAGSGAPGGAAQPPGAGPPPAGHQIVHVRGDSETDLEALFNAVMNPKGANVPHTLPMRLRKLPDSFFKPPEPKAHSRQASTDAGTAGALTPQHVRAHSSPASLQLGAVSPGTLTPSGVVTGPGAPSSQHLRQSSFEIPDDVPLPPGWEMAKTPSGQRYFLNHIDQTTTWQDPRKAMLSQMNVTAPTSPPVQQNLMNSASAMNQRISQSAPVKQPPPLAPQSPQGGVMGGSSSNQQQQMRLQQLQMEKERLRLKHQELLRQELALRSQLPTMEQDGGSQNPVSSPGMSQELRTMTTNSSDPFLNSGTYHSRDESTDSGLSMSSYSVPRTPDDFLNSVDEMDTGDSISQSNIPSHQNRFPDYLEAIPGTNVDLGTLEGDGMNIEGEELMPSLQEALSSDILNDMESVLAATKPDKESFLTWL

For test [1], the target named is T1, FLAG-SAV1 (chicken Salvador homolog 1, FLAG-tagged) (chicken) (UniProt E1C3T7).
T1 sequence: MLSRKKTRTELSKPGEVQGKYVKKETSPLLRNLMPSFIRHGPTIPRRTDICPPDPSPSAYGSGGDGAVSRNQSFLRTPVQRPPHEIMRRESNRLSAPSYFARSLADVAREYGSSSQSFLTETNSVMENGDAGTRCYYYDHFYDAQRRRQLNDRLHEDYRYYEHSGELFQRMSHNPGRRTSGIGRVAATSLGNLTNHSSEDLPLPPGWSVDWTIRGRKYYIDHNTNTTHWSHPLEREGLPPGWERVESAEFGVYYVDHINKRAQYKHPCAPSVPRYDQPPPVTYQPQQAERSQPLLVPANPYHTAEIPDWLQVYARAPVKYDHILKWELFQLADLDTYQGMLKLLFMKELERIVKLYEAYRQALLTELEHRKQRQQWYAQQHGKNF
Put plainly: co-IP; chicken granulosa cells transfected with pFLAG-SAV1 for 24 h; lysates immunoprecipitated with an antibody to FLAG (control: chicken IgG); 50 mM Tris-HCl pH 7.4, 150 mM NaCl, 0.2 mM PMSF, 1% Triton X-100, 1 mM EDTA; immunoblot for the endogenous partners. A general note: A western blot detects proteins with antibodies after separation by electrophoresis.

For test [2], the target named is T1, FLAG-SAV1 (chicken Salvador homolog 1, FLAG-tagged) (chicken). The description is as above. The source holds these as a separate data set.
Test [3] deals with T2, GST-SAV1 fusion protein (chicken SAV1) (chicken) (UniProt E1C3T7).
T2 sequence: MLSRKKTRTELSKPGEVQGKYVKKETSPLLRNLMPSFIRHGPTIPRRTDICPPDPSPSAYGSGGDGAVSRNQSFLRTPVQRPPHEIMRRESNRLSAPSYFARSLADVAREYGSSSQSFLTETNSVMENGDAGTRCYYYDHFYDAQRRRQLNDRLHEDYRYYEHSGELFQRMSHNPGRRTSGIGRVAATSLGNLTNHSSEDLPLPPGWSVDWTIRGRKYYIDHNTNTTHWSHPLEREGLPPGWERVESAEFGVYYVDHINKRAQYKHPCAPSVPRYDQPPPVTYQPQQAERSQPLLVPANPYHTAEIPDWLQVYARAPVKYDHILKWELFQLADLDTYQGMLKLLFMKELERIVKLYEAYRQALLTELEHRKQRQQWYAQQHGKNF
Put plainly: pull-down; CHO cells co-transfected with pSF-GST-SAV1 (or empty pSF-GST) and one of pcDNA3.0-STK4, STK3, LATS1, MOB2 for 24 h; lysates incubated with Glutathione Sepharose 4B beads overnight, washed three times with lysis buffer; western blot.

Like-named read-outs stand apart in the source and are kept apart here. No constants are given. Whether binding was seen depends on the method and setting. In cells and extracts the contact can be indirect. Some binding calls cover weakened binding; strength is not graded here. Sequences can lack the tags named with a protein.

In the case of “YAP1 (chicken Yes-associated protein), endogenous (from UniProt P46936 1-448)”, in test [1], the binding entry was “no binding”.

B1: STK4/MST1 (chicken serine/threonine kinase 4), endogenous (protein, UniProt Q5ZJK4 1-486)
chain: METVQLRNPRRQLKKLDEDSLTKQPEEVFDVLEKLGEGSYGSVFKAIHKETGQVVAIKQVPVESDLQEIIKEISIMQQCDSPHVVKYYGSYFKNTDLWIVMEYCGAGSVSDIIRLRNKTLTEEEIATIVQSTLKGLEYLHFMRKIHRDIKAGNILLNTEGHAKLADFGVAGQLTDTMAKRNTVIGTPFWMAPGVIQEIGYNCVADIWSLGITAIEMAEGKPPYADIHPMRAIFMIPTNPPPTFRKPELWSDAFTDFVKQCLVKSPEQRATAIQLLQHPFVKSAKGASILRDLINEAMDIKLKRQEAQQRELDQEDEENSEEDETDSGTMVRASGDETGTIRVVNTMSDGANTMIEHDGTLESQLGTMVINTEDEEEEGTMKRRDETMQPARPSFLEYFEQKAKENQVNSFGKNVSGQTKNSSDWKVPQDGDYEFLKTWSVDELQRRLSALDPMMEQEIEEIRQKYQSKRQPILDAIEAKKRRQQNF
Turning to B1, the binding result in test [2] is given as “binds”.

B2: STK4 (chicken), expressed from pcDNA3.0-STK4 (protein, UniProt Q5ZJK4 1-486)
chain: METVQLRNPRRQLKKLDEDSLTKQPEEVFDVLEKLGEGSYGSVFKAIHKETGQVVAIKQVPVESDLQEIIKEISIMQQCDSPHVVKYYGSYFKNTDLWIVMEYCGAGSVSDIIRLRNKTLTEEEIATIVQSTLKGLEYLHFMRKIHRDIKAGNILLNTEGHAKLADFGVAGQLTDTMAKRNTVIGTPFWMAPGVIQEIGYNCVADIWSLGITAIEMAEGKPPYADIHPMRAIFMIPTNPPPTFRKPELWSDAFTDFVKQCLVKSPEQRATAIQLLQHPFVKSAKGASILRDLINEAMDIKLKRQEAQQRELDQEDEENSEEDETDSGTMVRASGDETGTIRVVNTMSDGANTMIEHDGTLESQLGTMVINTEDEEEEGTMKRRDETMQPARPSFLEYFEQKAKENQVNSFGKNVSGQTKNSSDWKVPQDGDYEFLKTWSVDELQRRLSALDPMMEQEIEEIRQKYQSKRQPILDAIEAKKRRQQNF
On to B2, for which, in test [3], the binding entry was “binds”.
